# Screening data

From PubChem BioAssay record AID1159506 (NCATS, 2015).

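Genome-wide siRNA knockdown in TC32 Ewing sarcoma cells, comparing luciferase light from an NR0B1-promoter reporter with a CMV-promoter reporter 48 hours after transfection. Each siRNA was applied at 20 nM. A z-score of the log NR0B1-over-CMV signal, less the median of siRNAs with the same seed; more negative means a stronger specific loss of the NR0B1 reporter.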

This is part of the screen; most of the strongest results are not listed here. Sequences are the guide (antisense) strand, without overhang.

Sequence,gene,seed-corrected z-score
AUAAGGGUCAUAGCCGAGC,TPST2,0.6343
UACAUGAUCUUCCUACUUC,CPSF3,-0.6485
UUUGUAACAUCUCGAUUAC,PIK3CG,-0.2821
UUUGUUUCCAUAGGAGAGA,GZMH,-0.02767
UUUUCUAUCGUAUCCGAGG,RPS27A,1.478
AUUCGAGACAAGGAAAUUC,EPX,0.8055
UUGGGUUGUACCGUCUCUG,SLC25A28,0.1005
UUGUCCAUGAGUAUGUCCC,ZSCAN16,0.465
UAGGGUUACAAUUUCAGCC,TPD52L3,-0.09828
AAUCCUAUAAAUGGUCGCC,AASDH,0.7686
AGAACGCUGAGCAAAGUCU,SSNA1,0.8567
UCACUUGUGAGGGAGAAUU,RERGL,-0.1145
UAGCCUCAUAAUAAGUGCC,SOD1,-0.3222
CAAAUUCAGCUGAUUCACC,CFHR1,1.772
UUUUCGUCUCUUCACAUCG,MRPS14,0.004256
UAUAUGGUCAAUGUUGUUU,ACBD6,0.5001
UUUGUUGCUCCCAAUCUCC,NLRP11,0.3182
AGUUUUAACAAUGAGGCUG,GJB7,-0.763
AUCCACGUCAGUGAUAUCC,RINT1,0.8985
UCUAUGCUGAGGUCGUUGG,SLC44A3,0.6167
AAUUCGAUCAUUAUGUUGG,ENPP4,-0.1568
UCAGAUGCCUGAAACAGAC,PRR5,0.7023
UAGGUGAUGACGCAGCUCU,STARD10,-0.01868
UAGUUUGUCACUGUUGAUG,RPL12P8,0.03109
UUUCUGUAAGCGGCUAUCU,NEFH,-0.7208
AAACUUAGCACUGCCCAGG,SLC35F3,-1.222
AUCUUUAUAGUAGAAGAGG,PLEKHA6,0.1491
AAUCUCAUCAUCAGAAGGG,HLA-DQA1,-0.277
UCUGUAAGUUCCAUUAUGC,FRS2,-0.2613
UUCUUGACCAGGCAUGAUA,PMEL,-0.4903
UGUCUCCUAAACAACCUCC,LOC730378,0.1456
AACCAAACUGGUAGGAUGG,RPS15AP17,-0.0665
UGAAAUCUUACCUUCAGUC,SERPINB8,-0.5439
AUCUUUACUCUCUUCAACC,SNAP25,0.05359
AGAUGAUAAACGAGUAUCC,TM4SF4,-0.8629
UGAGUGGUACAUGCUUUCC,TTC39A,-0.2114
UUUGAGGAUGUAGUAUACG,ZNF486,0.1316
UACUAAGUCCUGUAAUUUC,TAF12,0.558
UUGGUUCCAAUAAUCUGUC,MID1,-0.1112
UUUAUAGCAGUUACUUUGC,BET1,0.3787
UUAUUGAUGUUGCUUUGUG,STRA13,0.2145
UAUCAGAUAUACAAUUGGG,CYSLTR2,-0.113
UACUGAUUCAGCUCCGGGU,MAD2L2,1.768
UUUGAACUCAAGGAAGGGC,SULT1A2,-0.6406
UCAGGGACAAGAACCAGUA,BRI3BP,-1.905
UCUGUAACCGGACUUUAGC,UCP2,-0.1735
UUUGGAUCAUGAGUCAGUC,MAN1A1,-0.2163
UCUGUUAACAGCAUCUGAG,STRADBP1,0.1071
UGCUCAUACUCUAUGGUGC,PLEKHA6,0.5089
AAAACUACUAGUUUGCAGC,MYL12BP2,-1.277

The first 4 entries again:

Sequence	gene	seed-corrected z-score
AUAAGGGUCAUAGCCGAGC	TPST2	0.6343
UACAUGAUCUUCCUACUUC	CPSF3	-0.6485
UUUGUAACAUCUCGAUUAC	PIK3CG	-0.2821
UUUGUUUCCAUAGGAGAGA	GZMH	-0.02767